Results are given in words; binding and its absence hold for the method and conditions named. In cells and extracts the contact can be indirect. Here binding means that the protein was enriched with, or labelled near, the bait; the list need not be complete.
T1: p140Cap (mouse (endogenous in synaptosomes of the telencephalon)) (UniProt Q9QWI6)
T1 sequence: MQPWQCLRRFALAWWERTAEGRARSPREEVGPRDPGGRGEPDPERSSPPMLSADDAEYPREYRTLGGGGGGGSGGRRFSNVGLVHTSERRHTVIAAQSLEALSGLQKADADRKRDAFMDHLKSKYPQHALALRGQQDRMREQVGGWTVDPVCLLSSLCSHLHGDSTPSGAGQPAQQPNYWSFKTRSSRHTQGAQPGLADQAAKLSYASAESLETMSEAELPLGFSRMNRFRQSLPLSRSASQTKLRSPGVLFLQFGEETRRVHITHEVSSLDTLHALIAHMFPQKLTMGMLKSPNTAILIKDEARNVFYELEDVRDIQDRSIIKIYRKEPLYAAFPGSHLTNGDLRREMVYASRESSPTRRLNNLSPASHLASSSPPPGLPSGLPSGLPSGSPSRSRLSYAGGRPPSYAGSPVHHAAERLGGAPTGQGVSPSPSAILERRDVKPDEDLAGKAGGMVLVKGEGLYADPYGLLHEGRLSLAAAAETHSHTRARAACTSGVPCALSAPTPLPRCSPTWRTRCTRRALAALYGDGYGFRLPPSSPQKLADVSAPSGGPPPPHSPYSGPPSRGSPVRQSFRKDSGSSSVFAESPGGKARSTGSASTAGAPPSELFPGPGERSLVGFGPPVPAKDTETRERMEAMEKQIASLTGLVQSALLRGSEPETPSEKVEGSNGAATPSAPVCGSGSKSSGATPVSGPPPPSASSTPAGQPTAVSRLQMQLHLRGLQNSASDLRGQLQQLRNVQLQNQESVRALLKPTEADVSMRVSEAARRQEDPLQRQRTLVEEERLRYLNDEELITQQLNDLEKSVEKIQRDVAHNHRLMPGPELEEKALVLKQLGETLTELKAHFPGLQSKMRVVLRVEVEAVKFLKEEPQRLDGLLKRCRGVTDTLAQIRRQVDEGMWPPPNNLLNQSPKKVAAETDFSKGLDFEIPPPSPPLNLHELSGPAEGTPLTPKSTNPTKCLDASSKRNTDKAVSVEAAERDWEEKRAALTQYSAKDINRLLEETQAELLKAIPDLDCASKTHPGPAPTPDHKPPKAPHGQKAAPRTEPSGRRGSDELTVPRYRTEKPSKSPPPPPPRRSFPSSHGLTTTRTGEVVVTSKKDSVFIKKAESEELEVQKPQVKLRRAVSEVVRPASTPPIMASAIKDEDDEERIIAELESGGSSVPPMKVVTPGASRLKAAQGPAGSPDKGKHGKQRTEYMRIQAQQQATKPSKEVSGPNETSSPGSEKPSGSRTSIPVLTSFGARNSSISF

B1: RIMS1 (protein, UniProt Q99NE5 1-1463)
chain: MSSAVGPRGPRPPTVPPPMQELPDLSHLTEEERNIIMAVMDRQKEEEEKEEAMLKCVVRDMAKPAACKTPRNAESQPHQPPLNIFRCVCVPRKPSSEEGGPDRNWRLHQQFESYKEQVRKIGEEARRYQGEHKDDAPTCGICHKTKFADGCGHLCSYCRTKFCARCGGRVSLRSNNEDKVVMWVCNLCRKQQEILTKSGAWFFGSGPQQPSQDGTLSDTATGAGSEVPREKKARLQERSRSQTPLSTAAVSSQDTASHGAPLDRNKGAEPSQQALGPEQKQASRSRSEPPRERKKAPGLSEQNGKGGQKSERKRVPKSVVQPGEGTADERERKERRETRRLEKGRSQDYPDRLEKREDGRVAEDEKQRKEEEGVSTPEYTSCEDVELESESVSEKGDLDYWLDPATWHSRETSPISSHPVTWQPSKEGDRLIGRVILNKRTTMPKESGALLGLKVVGGKMTDLGRLGAFITKVKKGSLADVVGHLRAGDEVLEWNGKPLPGATNEEVYNIILESKSEPQVEIIVSRPIGDIPRIPESSHPPLESSSSSFESQKMERPSISVISPTSPGALKDAPQVLPGQLSVKLWYDKVGHQLIVNVLQATDLPPRVDGRPRNPYVKMYFLPDRSDKSKRRTKTVKKLLEPKWNQTFVYSHVHRRDFRERMLEITVWDQPRVQDEESEFLGEILIELETALLDDEPHWYKLQTHDESSLPLPQPSPFMPRRHIHGESSSKKLQRSQRISDSDISDYEVDDGIGVVPPVGYRASARESKATTLTVPEQQRTTHHRSRSVSPHRGDDQGRPRSRLPNVPLQRSLDEIHPTRRSRSPTRHHDASRSLADHRSRHAESQYSSEPDSELLMLPRAKRGRSAECLHMTSELQPSLDRARSASTNCLRPDTSLHSPERERGRWSPSLARRRPASPRIQIQHASPENDRHSRKSERSSIQKQSRKGTASDADRVLPPCLSRRGYAIPRATDQPVIRGKHTTRSRSSEHSSIRTLCSMHHLAPGGSAPPSPLLTRTHRQGSPTQSPPADTSFGSRRGRQLPQVPVRSGSIEQASLVVEERTRQMKMKVHRFKQTTGSGSSQELDHEQYSKYNIHKDQYRSCDNASAKSSDSDVSDVSAISRASSTSRLSSTSFMSEQSERPRGRISSFTPKMQGRRMGTSGRAIIKSTSVSGEIYTLEHNDGSQSDTAVGTVGAGGKKRRSSLSAKVVAIVSRRSRSTSQLSQTESGHKKLKSTIQRSTETGMAAEMRKMVRQPSRESTDGSINSYSSEGNLIFPGVRVGPDSQFSDFLDGLGPAQLVGRQTLATPAMGDIQIGMEDKKGQLEVEVIRARSLTQKPGSKSTPAPYVKVYLLENGACIAKKKTRIARKTLDPLYQQSLVFDESPQGKVLQVIVWGDYGRMDHKCFMGVAQILLEELDLSSMVIGWYKLFPPSSLVDPTLTPLTRRASQSSLESSSGPPCIRS
B2: CTNND2 (δ-catenin) (protein, UniProt O35927 1-1247)
chain: MFARKQSGAAPFGAMPVPDQPPSASEKNSSLSPGLNTSNGDGSETETTSAILASVKEQELQFERLTRELEAERQIVASQLERCKLGSETGSMSSISSAGEQFHWQTQDGQKDIEDELTTGLELVDSCIRSLQESGILDPQDYSTSERPSLLSQSALQLNSKPEGSFQYPASYHSNQTLALGDTAPSQLPARSTQARAAGQSFSQGTTGRAGHLAGSEPAPPPPPPREPFAPSLGSAFHLPDAPPAAAALYYSSSTLPAPPRGGSPLTTTQGGSPTKLQRGGSAPEGAAYAAPRGSSPKQSPSRLAKSYSTSSPINIVVSSAGLSPIRVTSPPTVQSTISSSPIHQLSSTIGTYATLSPTKRLVHASEQYSKHSQELYATATLQRPGSLAAGSRASYSSQHGHLAPELRALQSPEHHIDPIYEDRVYQKPPMRSLSQSQGDPLPPAHTGTFRTSTAPSSPGVDSVPLQRTGSQHGPQNAAAATFQRASYAAGPASNYADPYRQLQYCASVDSPYSKSGPALPPEGTLARSPSIDSIQKDPREFGWRDPELPEVIQMLQHQFPSVQSNAAAYLQHLCFGDNKIKAEIRRQGGIQLLVDLLDHRMTEVHRSACGALRNLVYGKANDDNKIALKNCGGIPALVRLLRKTTDLEIRELVTGVLWNLSSCDALKMPIIQDALAVLTNAVIIPHSGWENSPLQDDRKIQLHSSQVLRNATGCLRNVSSAGEEARRRMRECDGLTDALLYVIQSALGSSEIDSKTVENCVCILRNLSYRLAAETSQGQHMGTDELDGLLCGETNGKDTESSGCWGKKKKKKKSQDQWDGVGPLPDCAEPPKGIQMLWHPSIVKPYLTLLSECSNPDTLEGAAGALQNLAAGSWKGWAEDVAGMAYALRSLPEGAPCLPQWSVYIRAAVRKEKGLPILVELLRIDNDRVVCAVATALRNMALDVRNKELIGKYAMRDLVHRLPGGNNSNNSGSKAMSDDTVTAVCCTLHEVITKNMENAKALRDAGGIEKLVGISKSKGDKHSPKVVKAASQVLNSMWQYRDLRSLYKKDGWSQYHFVASSSTIERDRQRPYSSSRTPSISPVRVSPNNRSASAPASPREMISLKERKTDYESAGNNATYHGTKGEHTSRKDTMTAQNTGVSTLYRNSYGAPAEDIKQNQVSTQPVPQEPSRKDYETYQPFPNSTRNYDESFFEDQVHHRPPASEYTMHLGLKSTGNYVDFYSAARPYSELNYETSHYPASPDSWV
B3: CASK (protein, UniProt O70589 1-926)
chain: MADDDVLFEDVYELCEVIGKGPFSVVRRCINRETGQQFAVKIVDVAKFTSSPGLSTEDLKREASICHMLKHPHIVELLETYSSDGMLYMVFEFMDGADLCFEIVKRADAGFVYSEAVASHYMRQILEALRYCHDNNIIHRDVKPHCVLLASKENSAPVKLGGFGVAIQLGESGLVAGGRVGTPHFMAPEVVKREPYGKPVDVWGCGVILFILLSGCLPFYGTKERLFEGIIKGKYKMNPRQWSHISESAKDLVRRMLMLDPAERITVYEALNHPWLKERDRYAYKIHLPETVEQLRKFNARRKLKGAVLAAVSSHKFNSFYGDPPEELPDFSEDPTSSGLLAAERAVSQVLDSLEEIHALTDCSEKDLDFLHSVFQDQHLHTLLDLYDKINTKSSPQIRNPPSDAVQRAKEVLEEISCYPENNDAKELKRILTQPHFMALLQTHDVVAHEVYSDEALRVTPPPTSPYLNGDSPESANGDMDMENVTRVRLVQFQKNTDEPMGITLKMNELNHCIVARIMHGGMIHRQGTLHVGDEIREINGISVANQTVEQLQKMLREMRGSITFKIVPSYRTQSSSCERDSPSTSRQSPANGHSSTNNSVSDLPSTTQPKGRQIYVRAQFEYDPAKDDLIPCKEAGIRFRVGDIIQIISKDDHNWWQGKLENSKNGTAGLIPSPELQEWRVACIAMEKTKQEQQASCTWFGKKKKQYKDKYLAKHNAVFDQLDLVTYEEVVKLPAFKRKTLVLLGAHGVGRRHIKNTLITKHPDRFAYPIPHTTRPPKKDEENGKNYYFVSHDQMMQDISNNEYLEYGSHEDAMYGTKLETIRKIHEQGLIAILDVEPQALKVLRTAEFAPFVVFIAAPTITPGLNEDESLQRLQKESDVLQRTYAHYFDLTIINNEIDETIRHLEEAVELVCTAPQWVPVSWVY

Target: T1, p140Cap (mouse (endogenous in synaptosomes of the telencephalon))
Test: affinity purification with mass spectrometry; p140Cap immunoprecipitated with Mab 2A8 cross-linked to protein G Dynabeads from 6 mg crude synaptosomal extract of WT mice (p140Cap KO as negative control), 2 h at 4°C, lysis buffer 150 mM NaCl, 50 mM Tris pH 7, 1% NP-40; label-free nanoLC-MS/MS, iBAQ, FDR 1% and at least 4-fold enrichment over KO

binding, binds:
B1
B2
B3
